Test results as given in PMC10342119, “ABF1 Positively Regulates Rice Chilling Tolerance via Inducing Trehalose Biosynthesis” (International Journal of Molecular Sciences, 2023).
These are yes or no findings as the source states them, for the method shown. For part of these data: Binding seen in cells or lysates may run through a third protein. Some results given as binding are weak or reduced against the parent protein; the word gives no strength. For part of these data: Sequences can lack the tags named with a protein.

Experiments:
[1] = biological target: T1, ABF1 fused to the GAL4-binding domain (ABF1-BD) (rice (Oryza sativa L.)) (UniProt Q0JHF1); experiment: two-hybrid; Matchmaker Gold Yeast Two-Hybrid System, strain Y2H Gold; selection on medium lacking Leu, Trp, His and adenine with 0.04 mg/mL X-alpha-Gal and 100 ng/mL Aureobasidin A
T1 sequence: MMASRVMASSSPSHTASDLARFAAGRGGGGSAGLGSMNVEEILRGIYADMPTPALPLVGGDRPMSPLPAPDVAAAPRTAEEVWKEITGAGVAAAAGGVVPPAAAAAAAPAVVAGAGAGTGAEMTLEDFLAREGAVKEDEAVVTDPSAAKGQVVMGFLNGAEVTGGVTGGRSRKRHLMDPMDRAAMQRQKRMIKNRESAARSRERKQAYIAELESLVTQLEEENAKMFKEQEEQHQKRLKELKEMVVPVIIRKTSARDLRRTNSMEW

[2] = biological target: T2, YN-ABF1 (rice (Oryza sativa L.)) (UniProt Q0JHF1); experiment: split reporter; BiFC with YN-ABF1 and YC-SAPK10 from pDOE in tobacco leaf epidermal cells; confocal microscopy 72 h after infiltration
T2 sequence: T1 sequence

[3] = biological target: T3, SAPK10-FLAG (rice (Oryza sativa L.)) (UniProt Q75H77); experiment: co-IP; SAPK10-FLAG co-expressed with GFP or ABF1-GFP in tobacco leaves; extract incubated with anti-FLAG M2 magnetic beads at 4 °C for 2 h; blots with anti-GFP and anti-FLAG
T3 sequence: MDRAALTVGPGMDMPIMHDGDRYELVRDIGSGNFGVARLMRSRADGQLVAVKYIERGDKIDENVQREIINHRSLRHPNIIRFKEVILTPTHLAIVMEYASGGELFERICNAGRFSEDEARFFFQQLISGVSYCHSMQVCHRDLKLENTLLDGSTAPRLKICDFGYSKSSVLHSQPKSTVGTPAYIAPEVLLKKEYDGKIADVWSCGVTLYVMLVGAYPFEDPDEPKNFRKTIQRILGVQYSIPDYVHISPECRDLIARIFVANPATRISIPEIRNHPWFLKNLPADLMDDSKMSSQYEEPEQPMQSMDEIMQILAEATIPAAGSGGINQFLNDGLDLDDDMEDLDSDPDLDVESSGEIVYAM

B1: SAPK10-AD (enzyme, UniProt Q75H77 1-362)
chain: T3 sequence
- binding [1]: binds

B2: YC-SAPK10 (enzyme, UniProt Q75H77 1-362)
chain: T3 sequence
- binding [2]: binds

B3: GST-ABF1 (natural protein, rice (Oryza sativa L.), UniProt Q0JHF1 1-266, looked up)
chain: T1 sequence
notes: ABF1 (bZIP12), bZIP transcription factor of rice; the CDS was fused into pGEX-4T-1; also called bZIP12; source: E. coli Transetta (DE3), purified (GST-Sefinose Kit); not shown: GST, N-terminal, kept
- binding [3]: binds
